PubChem BioAssay AID743456, Peter MacCallum Cancer Centre, 2014

- Test: 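Identify miRNAs tied to vorinostat resistance or sensitivity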 (primary screen)
- System: human HCT116-VR colon cancer cells, a vorinostat-resistant HCT116 line
- Reagents: miRNA mimic
- Timing: about 3 days from transfection to readout; drug present for the last 24 h
- Treatment: vorinostat at 2.5 µM final for 24 h
- Read-out: 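Cell viability from CellTiter-Fluor signal and caspase activity from luminescence after 24 h vorinostat at 2.5 µM, given as robust z-scores and as ratios to mock-transfected wells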
- Direction: viability robust z-score: higher = more viable cells; caspase robust z-score: higher = more caspase activity, more apoptosis
- Hit rule: 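a mimic counts as active if it lands in a lowered-viability class or a caspase-activation class; wells with too few cells without drug are left out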
This is a random part of 878 deposited reagents. 27 of all reagents (3.1%) were called active. 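27 mimics are marked active, unlike an earlier stated count of 24; the viability threshold is described inconsistently.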 Entries without a mark were called inactive. Not all columns of the deposit are shown. The record does not give: the amount of reagent.

For hsa-let-7f-2* the deposit lists viability robust z-score -0.67; caspase robust z-score 0.3; viability hit class no change; caspase hit class no change. For hsa-miR-20b, the values are viability robust z-score 0.7; caspase robust z-score 0.24; viability hit class no change; caspase hit class no change. hsa-let-7e gave viability robust z-score -0.16; caspase robust z-score -0.15; viability hit class no change; caspase hit class no change. With hsa-miR-520a-3p the deposit lists viability robust z-score -0.11; caspase robust z-score 2; viability hit class no change; caspase hit class no change. hsa-miR-338-5p gave viability robust z-score 0.28; caspase robust z-score -0.5; viability hit class no change; caspase hit class no change. For hsa-miR-542-3p the deposit lists viability robust z-score -2.06; caspase robust z-score 1.21; viability hit class no change; caspase hit class no change.

hsa-miR-1298 scored viability robust z-score -0.49; caspase robust z-score 1.16; viability hit class no change; caspase hit class no change. With hsa-miR-593* the deposit lists viability robust z-score -0.18; caspase robust z-score 0.88; viability hit class no change; caspase hit class no change. With hsa-miR-488, the entry reads viability robust z-score -0.57; caspase robust z-score 0.68; viability hit class no change; caspase hit class no change. For hsa-miR-450a, the values are viability robust z-score 0.29; caspase robust z-score -0.52; viability hit class no change; caspase hit class no change. hsa-miR-126 gave viability robust z-score -0.61; caspase robust z-score -0.75; viability hit class no change; caspase hit class no change. hsa-miR-200b* showed viability robust z-score 0.71; caspase robust z-score -0.73; viability hit class no change; caspase hit class no change.

hsa-miR-124* scored viability robust z-score -0.92; caspase robust z-score -0.07; viability hit class no change; caspase hit class no change. For hsa-miR-648 the deposit lists viability robust z-score -1.4; caspase robust z-score 0.64; viability hit class no change; caspase hit class no change. For hsa-miR-361-5p, the values are viability robust z-score 0.83; caspase robust z-score -0.62; viability hit class no change; caspase hit class no change. For hsa-miR-103-as the deposit lists viability robust z-score -1.79; caspase robust z-score -1.21; viability hit class no change; caspase hit class no change. hsa-miR-553 scored viability robust z-score 1.25; caspase robust z-score -0.83; viability hit class no change; caspase hit class no change. hsa-miR-224* scored viability robust z-score 0.26; caspase robust z-score 1.76; viability hit class no change; caspase hit class no change.
